According to publication PMC5607612:
Results are given in words; binding and its absence hold for the method and conditions named. In cells and extracts the contact can be indirect. Some binding calls cover weakened binding; strength is not graded here.

Protein sequences, listed by entry. Tags and fused reporters are not part of them.
UniProt Q9R1C8: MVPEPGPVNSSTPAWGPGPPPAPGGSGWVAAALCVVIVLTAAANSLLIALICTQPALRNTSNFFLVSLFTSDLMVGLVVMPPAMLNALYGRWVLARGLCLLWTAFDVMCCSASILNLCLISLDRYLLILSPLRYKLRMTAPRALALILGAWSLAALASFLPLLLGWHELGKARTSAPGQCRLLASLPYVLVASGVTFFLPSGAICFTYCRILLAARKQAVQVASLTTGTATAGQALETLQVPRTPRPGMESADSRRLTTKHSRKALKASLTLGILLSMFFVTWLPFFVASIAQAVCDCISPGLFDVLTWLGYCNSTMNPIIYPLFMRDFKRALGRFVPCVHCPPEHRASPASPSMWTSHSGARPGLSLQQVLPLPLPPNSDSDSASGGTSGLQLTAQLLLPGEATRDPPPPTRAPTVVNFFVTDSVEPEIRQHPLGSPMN
UniProt Q640N2: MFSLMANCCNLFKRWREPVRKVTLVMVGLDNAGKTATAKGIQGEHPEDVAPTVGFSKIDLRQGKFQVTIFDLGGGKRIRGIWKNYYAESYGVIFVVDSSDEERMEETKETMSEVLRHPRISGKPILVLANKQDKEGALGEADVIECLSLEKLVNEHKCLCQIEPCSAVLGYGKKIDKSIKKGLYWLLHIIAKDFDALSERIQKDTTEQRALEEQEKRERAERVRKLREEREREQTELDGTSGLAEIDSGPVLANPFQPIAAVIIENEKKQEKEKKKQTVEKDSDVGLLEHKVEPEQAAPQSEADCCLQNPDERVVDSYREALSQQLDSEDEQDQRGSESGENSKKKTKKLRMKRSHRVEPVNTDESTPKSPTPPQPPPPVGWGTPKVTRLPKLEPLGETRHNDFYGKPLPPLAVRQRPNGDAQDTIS

Legend:
[1] = target: Serotonin 6 receptor (5-HT6) (mouse) (UniProt Q9R1C8); assay: co-IP; HEK293T cells transfected for 48 hours, RIPA lysis buffer; lysate incubated with protein A + G agarose beads and antibodies (anti-ARL13B or anti-5-HT6) overnight, washed three times with PBS, western blot; both directions
[2] = target: ADP-ribosylation factor-like protein 13B (ARL13B) (mouse) (UniProt Q640N2); assay: as above

Row | binding [1] | binding [2] | Substance
1 | binds |  | ADP-ribosylation factor-like protein 13B (ARL13B) (from UniProt Q640N2 1-427)
2 |  | binds | Serotonin 6 receptor (5-HT6) (from UniProt Q9R1C8 1-440)
